Source: patent US20250388936A1, “METHODS AND CELLS FOR THE PRODUCTION OF FLUORINATED COMPOUNDS” (priority 2022, published 2025)

Assays:
[1] = Cell-free extracts expressing flA1, pfs and kinBt incubated with SAM and NaF, LC-MS; type: biochemical, P. putida KT2440::FRS-T7RNAP; details: 20 h incubation with SAM and NaF, flA1, pfs and kinBt under PT7
[2] = Cell-free extracts incubated with 5′-FDA, 19F-NMR; type: biochemical, P. putida KT2440::FRS-T7RNAP
[3] = nucleosidase and kinase (phosphorylation bypass), isomerase and aldolase, 5′-FDA as substrate

O=C[C@H](O)[C@H](O)[C@H](O)CF [5′-FDR, 5′-fluorodeoxyribose]
fluorometabolite found by LC-MS [1]: some residual 5′-FDR is also found

O=CCF [FAld, fluoroacetaldehyde]
fluorometabolite detected by 19F-NMR [2, 3]: could be detected

O=C(O)CF [FAc, fluoroacetate]
fluorometabolite detected by 19F-NMR ([2]; isomerase and aldolase with PNP from Streptomyces sp. strain MA37, 5′-FDA as substrate): could be detected | fluorometabolite detected by 19F-NMR [2, 3]: could be detected

Nc1ncnc2c1ncn2[C@@H]1O[C@H](CF)[C@@H](O)[C@H]1O [5′-FDA, 5′-fluoro-5′-deoxyadenosine]
fluorometabolite found by LC-MS [1]: no 5′-FDA is detected

O=P(O)(O)OC1O[C@H](CF)[C@@H](O)[C@H]1O (stereo partly drawn) [5′-FDRP, 5′-fluoro-5′-deoxy-D-ribose 1-phosphate]
fluorometabolite found by LC-MS [1]: most of it converted into the final product 5′-FDRP
